Experimental data as given in PMC12946505.

Target: RrJMJ12-HIS (Rosa rugosa) (UniProt A0A2P6P5A5)
Assay: EMSA
Conditions: EMSA/Gel-Shift Kit (Beyotime) binding buffer, 30 min at 24 C, salt and pH not stated, recombinant protein, protein details: His (pET32a), label: biotin
[1] = increasing RrMYB2-GST (full CDS)

Sequence: TTTCTCATGAACCCTCTGCTTTCTCATCTTGGGT (double strand) [Probe2]
- binding result [1]: binds more weakly
- binding result (without RrMYB2): binds

Sequence: TAATTAGGTATCTCTGCTCGAGTTCTTTTG (double strand) [Probe5]
- binding result [1]: binds more weakly
- binding result (without RrMYB2): binds

Sequence: GTCTTATTTTTCTCTGTTTTCTTTTTTGGTATT (double strand) [Probe3]
- binding result [1]: binds more weakly
- binding result (without RrMYB2): binds

The exact form of at least one protein or probe is not confirmed. Weaker means in comparison with the reference protein, sequence or condition of that experiment. At least one verdict was read from the data and is not stated in words by the source.
